# Data published in patent publication US11274111B2, “Arginase inhibitors and methods of use” (Merck Sharp & Dohme Corp., priority 2018, dated 2022).
# Sequences of proteins named here, by UniProt entry; tags and fusion partners are left off.
# UniProt P05089, whole entry: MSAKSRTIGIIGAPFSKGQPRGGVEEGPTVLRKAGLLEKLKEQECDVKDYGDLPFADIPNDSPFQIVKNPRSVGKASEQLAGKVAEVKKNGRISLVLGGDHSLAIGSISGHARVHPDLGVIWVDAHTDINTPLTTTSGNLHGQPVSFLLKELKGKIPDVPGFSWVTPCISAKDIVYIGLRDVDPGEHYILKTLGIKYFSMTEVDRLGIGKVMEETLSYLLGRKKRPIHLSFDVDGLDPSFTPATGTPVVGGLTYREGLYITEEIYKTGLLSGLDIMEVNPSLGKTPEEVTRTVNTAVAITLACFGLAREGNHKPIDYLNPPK
# The structures given here were assigned with low confidence; some may be wrong.
# Target: Arginase (Homo sapiens, UniProt P05089)
# Assay: Arginase Thioornithine Generating Assay (TOGA)
# Conditions: tested form: t-butylamine and HCl salt
# Description: Arginase Thioornithine Generating Assay (TOGA)
# Compounds were serially diluted in ten 3-fold steps in DMSO starting from 10 mM DMSO stocks. Compound dilutions or DMSO alone were then dispensed from the dilution plate into a Greiner black 384-well assay plate (catalog #781086) using an Echo 555 acoustic liquid handler (Labcyte).
# Arginase protein was recombinantly expressed in Escherichia coli. […] Plates were briefly shaken to mix and the fluorescence was measured in an Spectramax plate reader (Molecular Devices) with a 410 nm excitation wavelength and an 490 nm emission wavelength.
# Potencies were calculated by […] to the four parameter logistic IC50 equation.
smiles,measurement,setting,value
CN[C@H]1C[C@@H]2C[C@@](N)(C(=O)O)[C@@H](CCCB(O)O)[C@@H]2[C@H]1F,Percent Inhibition at Top Dose,Top Dose 10000 nM,99.64%
same,IC50,"read-out: TOGA IC50, recombinant arginase 1.88 nM, thioarginine substrate",4.56 nM
